Assay results from PMC9072907.
Results are given in words; binding and its absence hold for the method and conditions named. In cells and extracts the contact can be indirect. Some results given as binding are weak or reduced against the parent protein; the word gives no strength.

The chains behind the UniProt entries cited, without tags or fusion partners. Where a name states a change or a piece, a line headed by the entry shows the natural chain unless it says otherwise.
UniProt Q9Y4R8: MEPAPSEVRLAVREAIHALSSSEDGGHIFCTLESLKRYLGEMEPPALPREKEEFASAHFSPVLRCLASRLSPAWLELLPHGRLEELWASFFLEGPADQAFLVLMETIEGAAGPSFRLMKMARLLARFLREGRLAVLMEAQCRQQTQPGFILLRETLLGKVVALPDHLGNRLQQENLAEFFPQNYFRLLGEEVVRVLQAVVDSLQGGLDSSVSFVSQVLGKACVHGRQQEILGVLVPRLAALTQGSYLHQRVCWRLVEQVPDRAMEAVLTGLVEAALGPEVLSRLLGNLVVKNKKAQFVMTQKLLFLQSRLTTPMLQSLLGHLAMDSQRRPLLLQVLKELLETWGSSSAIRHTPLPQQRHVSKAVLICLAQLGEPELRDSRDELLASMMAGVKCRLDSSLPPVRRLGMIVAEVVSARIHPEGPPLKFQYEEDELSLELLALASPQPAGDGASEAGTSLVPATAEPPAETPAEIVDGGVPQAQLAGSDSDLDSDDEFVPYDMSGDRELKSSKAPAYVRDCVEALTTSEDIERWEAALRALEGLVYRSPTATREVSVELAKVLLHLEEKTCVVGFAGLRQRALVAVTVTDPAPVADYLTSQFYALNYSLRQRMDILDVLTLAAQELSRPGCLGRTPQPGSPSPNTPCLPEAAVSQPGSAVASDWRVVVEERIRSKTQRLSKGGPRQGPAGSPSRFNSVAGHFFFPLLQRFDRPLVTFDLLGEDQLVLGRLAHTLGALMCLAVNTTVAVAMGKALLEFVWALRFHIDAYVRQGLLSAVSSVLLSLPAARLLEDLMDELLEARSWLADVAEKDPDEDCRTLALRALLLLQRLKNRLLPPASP
UniProt O43156: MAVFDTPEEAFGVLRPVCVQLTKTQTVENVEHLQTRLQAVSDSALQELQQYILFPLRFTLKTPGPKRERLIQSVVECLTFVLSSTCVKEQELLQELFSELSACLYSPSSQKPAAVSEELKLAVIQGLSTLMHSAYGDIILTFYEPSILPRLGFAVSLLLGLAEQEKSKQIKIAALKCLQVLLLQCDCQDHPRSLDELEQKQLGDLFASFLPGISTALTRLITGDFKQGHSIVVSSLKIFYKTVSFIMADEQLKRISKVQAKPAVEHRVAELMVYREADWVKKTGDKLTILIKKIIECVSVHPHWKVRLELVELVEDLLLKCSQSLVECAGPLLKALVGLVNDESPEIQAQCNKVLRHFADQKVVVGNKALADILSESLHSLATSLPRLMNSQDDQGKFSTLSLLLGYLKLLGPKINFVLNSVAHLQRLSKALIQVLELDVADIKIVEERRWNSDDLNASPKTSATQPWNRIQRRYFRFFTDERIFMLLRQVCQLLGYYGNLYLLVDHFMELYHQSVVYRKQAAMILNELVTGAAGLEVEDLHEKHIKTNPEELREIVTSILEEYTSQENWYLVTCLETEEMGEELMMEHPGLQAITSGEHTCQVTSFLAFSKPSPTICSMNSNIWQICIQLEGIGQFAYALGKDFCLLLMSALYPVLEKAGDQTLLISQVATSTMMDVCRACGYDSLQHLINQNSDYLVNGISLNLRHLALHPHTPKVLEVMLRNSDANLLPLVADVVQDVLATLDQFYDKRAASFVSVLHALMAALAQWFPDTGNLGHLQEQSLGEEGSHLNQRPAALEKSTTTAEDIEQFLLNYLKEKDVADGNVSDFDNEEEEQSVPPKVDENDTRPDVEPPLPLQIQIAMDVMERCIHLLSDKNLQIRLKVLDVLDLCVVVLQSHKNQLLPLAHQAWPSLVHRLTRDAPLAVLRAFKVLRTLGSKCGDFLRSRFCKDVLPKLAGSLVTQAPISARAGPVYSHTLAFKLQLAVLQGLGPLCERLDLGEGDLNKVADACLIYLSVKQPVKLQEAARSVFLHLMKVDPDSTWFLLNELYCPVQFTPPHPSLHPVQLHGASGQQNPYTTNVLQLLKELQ

Columns and labels:
[1] = biological target: FLAG-TELO2 K749T (human) (UniProt Q9Y4R8); assay: co-IP; FLAG-tagged TELO2 precipitated with anti-DDDDK-tag (FLAG) antibody on protein G Sepharose, 4°C, 12 h; TELO2 IP buffer (40 mM HEPES-NaOH pH 7.5, 150 mM NaCl, 2 mM EDTA, 0.3% CHAPS); HEK293 cells with or without 10 μM ivermectin for 1 h; western blotting
[2] = biological target: FLAG-tagged wild-type (WT) TELO2 (human) (UniProt Q9Y4R8); assay: as above

binding [1]: binds | binding [2]: binds
Substance: TELO2-interacting protein 1 homolog (from UniProt O43156 1-1089)
